Experimental data reported in the supplement of paper PMC12819154, “High-throughput peptide-centric local stability assay extends protein–ligand identification to membrane proteins, tissues and bacteria” (Nature Structural & Molecular Biology, 2025).
The list shows a part of the results. Small differences around the control level are noise.

By UniProt entry, the sequences of proteins in these tests, tags left out. Where a name states a change or a piece, a line headed by the entry shows the natural chain unless it says otherwise.
UniProt Q9JIK5: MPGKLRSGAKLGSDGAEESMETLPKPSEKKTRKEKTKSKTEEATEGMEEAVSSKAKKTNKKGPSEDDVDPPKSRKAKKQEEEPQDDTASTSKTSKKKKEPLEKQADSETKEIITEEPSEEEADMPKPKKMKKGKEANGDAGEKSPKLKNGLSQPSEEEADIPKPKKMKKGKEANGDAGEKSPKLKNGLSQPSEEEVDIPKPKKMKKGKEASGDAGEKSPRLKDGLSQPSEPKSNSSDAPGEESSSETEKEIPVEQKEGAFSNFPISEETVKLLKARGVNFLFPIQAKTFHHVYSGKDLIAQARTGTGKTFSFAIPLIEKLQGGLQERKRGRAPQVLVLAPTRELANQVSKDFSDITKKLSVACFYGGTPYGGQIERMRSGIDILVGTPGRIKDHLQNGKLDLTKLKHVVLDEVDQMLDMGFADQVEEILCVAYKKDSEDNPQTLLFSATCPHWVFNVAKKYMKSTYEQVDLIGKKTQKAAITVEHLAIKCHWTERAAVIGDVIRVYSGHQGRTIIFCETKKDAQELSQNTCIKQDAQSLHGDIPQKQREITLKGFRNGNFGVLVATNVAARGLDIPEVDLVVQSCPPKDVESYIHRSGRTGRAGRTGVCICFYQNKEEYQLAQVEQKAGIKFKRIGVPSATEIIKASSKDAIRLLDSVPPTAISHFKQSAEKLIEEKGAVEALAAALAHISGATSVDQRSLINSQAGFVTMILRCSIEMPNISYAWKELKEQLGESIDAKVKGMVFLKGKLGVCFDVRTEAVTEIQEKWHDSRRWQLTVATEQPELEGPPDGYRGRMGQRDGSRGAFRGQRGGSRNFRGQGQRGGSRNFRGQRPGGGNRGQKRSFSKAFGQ
UniProt Q9JK24: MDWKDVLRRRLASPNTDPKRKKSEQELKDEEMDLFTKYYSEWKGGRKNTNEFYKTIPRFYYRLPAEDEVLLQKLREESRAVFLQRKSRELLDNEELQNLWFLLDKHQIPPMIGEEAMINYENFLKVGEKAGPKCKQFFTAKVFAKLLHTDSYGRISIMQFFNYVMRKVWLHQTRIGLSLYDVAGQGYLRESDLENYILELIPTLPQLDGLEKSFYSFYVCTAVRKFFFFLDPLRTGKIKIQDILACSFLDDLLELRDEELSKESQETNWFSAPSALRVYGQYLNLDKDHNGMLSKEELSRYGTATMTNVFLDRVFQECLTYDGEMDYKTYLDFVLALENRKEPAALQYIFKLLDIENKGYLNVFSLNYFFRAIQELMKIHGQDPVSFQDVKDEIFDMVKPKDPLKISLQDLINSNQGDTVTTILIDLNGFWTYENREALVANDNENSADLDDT
UniProt Q9JIS3: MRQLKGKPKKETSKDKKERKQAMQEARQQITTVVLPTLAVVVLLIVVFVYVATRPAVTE
UniProt Q9JKS4, whole entry: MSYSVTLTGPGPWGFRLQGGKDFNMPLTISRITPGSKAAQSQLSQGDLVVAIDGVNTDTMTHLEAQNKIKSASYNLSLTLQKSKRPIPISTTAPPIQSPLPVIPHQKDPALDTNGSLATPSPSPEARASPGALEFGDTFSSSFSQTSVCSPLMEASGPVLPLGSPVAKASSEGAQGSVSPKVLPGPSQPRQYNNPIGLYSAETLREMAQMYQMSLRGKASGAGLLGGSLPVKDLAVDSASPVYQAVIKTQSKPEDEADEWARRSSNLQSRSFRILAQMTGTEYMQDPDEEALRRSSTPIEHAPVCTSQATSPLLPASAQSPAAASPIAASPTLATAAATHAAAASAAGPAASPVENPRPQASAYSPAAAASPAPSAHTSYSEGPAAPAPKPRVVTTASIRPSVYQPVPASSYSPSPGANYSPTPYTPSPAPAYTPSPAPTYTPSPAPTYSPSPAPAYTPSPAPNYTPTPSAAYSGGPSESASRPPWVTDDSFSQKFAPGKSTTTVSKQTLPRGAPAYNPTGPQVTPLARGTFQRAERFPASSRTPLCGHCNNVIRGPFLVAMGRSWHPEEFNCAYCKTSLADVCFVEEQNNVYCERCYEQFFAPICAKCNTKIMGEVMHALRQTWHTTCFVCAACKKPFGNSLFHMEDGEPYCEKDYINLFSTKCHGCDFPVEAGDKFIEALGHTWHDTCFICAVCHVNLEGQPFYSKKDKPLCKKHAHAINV
UniProt Q9JMG1: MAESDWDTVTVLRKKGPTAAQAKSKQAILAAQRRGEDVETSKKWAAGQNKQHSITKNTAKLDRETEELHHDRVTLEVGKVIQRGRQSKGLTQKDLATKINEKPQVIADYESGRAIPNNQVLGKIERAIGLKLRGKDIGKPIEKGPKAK
UniProt Q9EST3: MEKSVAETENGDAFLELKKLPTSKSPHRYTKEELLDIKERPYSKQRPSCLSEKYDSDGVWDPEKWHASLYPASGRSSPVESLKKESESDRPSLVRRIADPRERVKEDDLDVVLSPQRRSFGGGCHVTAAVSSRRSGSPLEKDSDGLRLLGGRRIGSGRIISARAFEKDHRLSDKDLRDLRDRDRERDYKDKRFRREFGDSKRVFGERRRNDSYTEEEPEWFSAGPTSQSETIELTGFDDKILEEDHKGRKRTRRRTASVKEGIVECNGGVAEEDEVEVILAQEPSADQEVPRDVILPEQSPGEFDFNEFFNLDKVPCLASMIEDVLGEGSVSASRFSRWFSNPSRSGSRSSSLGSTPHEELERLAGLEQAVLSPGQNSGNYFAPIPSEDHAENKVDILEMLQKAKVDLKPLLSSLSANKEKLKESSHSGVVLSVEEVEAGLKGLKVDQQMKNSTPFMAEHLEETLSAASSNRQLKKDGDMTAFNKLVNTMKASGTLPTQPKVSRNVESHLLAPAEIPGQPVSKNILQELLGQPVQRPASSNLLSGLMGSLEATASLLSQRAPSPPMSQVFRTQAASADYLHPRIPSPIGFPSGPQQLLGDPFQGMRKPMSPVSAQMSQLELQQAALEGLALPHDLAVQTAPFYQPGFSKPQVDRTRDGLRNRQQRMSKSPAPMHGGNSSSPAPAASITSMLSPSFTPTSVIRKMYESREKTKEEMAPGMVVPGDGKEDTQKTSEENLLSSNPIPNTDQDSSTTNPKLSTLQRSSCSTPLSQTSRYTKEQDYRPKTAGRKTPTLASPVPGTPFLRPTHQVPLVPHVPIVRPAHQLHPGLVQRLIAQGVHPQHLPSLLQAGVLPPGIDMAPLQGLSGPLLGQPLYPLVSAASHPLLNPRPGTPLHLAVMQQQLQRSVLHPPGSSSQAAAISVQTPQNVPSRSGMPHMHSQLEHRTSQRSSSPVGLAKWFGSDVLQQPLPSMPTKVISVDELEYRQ
UniProt Q9JJ48: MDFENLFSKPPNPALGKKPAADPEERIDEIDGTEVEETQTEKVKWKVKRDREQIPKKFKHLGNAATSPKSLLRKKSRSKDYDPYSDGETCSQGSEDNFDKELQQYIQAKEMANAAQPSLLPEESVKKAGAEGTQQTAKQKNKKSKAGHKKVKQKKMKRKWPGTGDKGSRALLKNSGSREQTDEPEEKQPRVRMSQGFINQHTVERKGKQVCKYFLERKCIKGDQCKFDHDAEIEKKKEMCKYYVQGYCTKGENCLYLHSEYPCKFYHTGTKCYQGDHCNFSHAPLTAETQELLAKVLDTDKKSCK
UniProt Q9JI44, whole entry: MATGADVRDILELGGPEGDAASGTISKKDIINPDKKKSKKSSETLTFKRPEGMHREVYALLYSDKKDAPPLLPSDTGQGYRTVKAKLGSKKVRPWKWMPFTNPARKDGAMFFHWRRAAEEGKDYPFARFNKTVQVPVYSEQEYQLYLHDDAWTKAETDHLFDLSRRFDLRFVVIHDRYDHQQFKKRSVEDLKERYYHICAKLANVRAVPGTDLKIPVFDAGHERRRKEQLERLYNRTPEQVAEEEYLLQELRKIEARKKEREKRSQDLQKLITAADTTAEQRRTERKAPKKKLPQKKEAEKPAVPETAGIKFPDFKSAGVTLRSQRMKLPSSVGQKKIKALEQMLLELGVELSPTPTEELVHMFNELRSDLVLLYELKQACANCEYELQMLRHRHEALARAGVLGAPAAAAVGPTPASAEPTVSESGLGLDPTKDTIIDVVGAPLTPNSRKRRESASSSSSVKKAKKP
UniProt Q9JMH6, whole entry: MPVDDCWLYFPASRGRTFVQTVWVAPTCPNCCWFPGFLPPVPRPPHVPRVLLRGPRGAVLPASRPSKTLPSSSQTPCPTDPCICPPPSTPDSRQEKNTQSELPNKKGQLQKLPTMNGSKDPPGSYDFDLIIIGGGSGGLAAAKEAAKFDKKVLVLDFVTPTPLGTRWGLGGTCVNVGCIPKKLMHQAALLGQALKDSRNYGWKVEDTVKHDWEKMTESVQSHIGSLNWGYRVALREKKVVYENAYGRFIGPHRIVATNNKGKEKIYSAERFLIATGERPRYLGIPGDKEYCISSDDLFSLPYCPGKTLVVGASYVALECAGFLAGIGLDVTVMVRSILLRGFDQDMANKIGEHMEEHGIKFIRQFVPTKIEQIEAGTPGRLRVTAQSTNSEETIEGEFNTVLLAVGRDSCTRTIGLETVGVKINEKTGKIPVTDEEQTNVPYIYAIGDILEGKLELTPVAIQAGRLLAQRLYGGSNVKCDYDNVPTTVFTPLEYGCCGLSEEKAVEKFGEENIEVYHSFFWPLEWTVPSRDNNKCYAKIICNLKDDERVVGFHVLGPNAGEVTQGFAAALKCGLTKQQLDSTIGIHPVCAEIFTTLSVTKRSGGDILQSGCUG
UniProt Q9JJC6: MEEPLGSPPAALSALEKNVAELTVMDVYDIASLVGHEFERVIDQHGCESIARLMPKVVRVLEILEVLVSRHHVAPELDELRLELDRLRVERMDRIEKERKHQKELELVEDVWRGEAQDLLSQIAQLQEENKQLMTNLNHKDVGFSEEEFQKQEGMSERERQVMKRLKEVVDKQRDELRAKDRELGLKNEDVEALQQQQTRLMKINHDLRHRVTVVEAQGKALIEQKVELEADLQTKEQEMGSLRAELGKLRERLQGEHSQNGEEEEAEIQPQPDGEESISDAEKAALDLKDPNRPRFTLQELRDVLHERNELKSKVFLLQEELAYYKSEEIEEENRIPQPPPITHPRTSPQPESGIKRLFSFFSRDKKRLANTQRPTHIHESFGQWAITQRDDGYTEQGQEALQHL
UniProt Q9JKF6: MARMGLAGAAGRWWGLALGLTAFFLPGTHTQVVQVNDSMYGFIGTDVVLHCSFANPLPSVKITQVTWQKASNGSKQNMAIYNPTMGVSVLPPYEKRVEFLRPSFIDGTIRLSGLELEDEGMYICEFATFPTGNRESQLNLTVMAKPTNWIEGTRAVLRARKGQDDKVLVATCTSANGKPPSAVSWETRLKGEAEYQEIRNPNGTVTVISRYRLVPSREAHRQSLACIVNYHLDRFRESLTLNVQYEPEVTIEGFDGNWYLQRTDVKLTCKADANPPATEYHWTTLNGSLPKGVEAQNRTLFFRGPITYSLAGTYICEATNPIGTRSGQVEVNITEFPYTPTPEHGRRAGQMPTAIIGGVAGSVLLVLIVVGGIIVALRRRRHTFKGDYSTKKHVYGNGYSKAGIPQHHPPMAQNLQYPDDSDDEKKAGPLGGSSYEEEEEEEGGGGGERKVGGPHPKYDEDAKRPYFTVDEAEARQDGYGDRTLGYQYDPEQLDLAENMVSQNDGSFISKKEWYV
UniProt Q9QX11: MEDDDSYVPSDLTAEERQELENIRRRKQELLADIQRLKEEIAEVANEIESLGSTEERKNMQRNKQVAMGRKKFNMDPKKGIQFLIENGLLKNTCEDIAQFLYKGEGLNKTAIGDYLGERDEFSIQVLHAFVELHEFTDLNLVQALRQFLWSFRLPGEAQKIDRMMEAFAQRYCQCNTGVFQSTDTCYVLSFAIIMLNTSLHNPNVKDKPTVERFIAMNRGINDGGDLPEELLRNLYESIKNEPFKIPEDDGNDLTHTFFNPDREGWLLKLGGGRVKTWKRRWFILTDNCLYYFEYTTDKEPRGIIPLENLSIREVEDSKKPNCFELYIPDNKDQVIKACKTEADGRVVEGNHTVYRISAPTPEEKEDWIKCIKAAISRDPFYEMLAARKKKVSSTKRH
UniProt Q9JKK7: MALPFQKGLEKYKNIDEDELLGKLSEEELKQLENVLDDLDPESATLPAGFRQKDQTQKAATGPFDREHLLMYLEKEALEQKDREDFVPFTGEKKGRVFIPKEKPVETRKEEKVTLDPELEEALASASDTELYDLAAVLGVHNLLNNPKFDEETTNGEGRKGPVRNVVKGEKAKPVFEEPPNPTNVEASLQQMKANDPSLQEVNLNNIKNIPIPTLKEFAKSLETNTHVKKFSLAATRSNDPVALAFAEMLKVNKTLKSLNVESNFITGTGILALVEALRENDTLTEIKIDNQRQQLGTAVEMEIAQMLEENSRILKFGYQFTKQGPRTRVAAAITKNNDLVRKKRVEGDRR
UniProt Q9QWG7: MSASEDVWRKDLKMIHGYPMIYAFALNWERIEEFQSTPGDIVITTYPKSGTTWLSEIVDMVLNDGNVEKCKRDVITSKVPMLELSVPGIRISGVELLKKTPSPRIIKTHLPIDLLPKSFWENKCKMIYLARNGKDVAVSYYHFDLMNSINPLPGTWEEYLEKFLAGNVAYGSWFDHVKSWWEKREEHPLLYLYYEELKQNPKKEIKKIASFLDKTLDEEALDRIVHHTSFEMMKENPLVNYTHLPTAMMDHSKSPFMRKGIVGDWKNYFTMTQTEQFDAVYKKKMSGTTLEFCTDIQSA

Compound: CN[C@@H]1C[C@H]2O[C@@](C)([C@@H]1OC)n1c3ccccc3c3c4c(c5c6ccccc6n2c5c31)C(=O)NC4 [staurosporine]
Assay: log2 fold change of tryptic peptide abundance, ligand vs vehicle (limited proteolysis) (log2 ratio); higher = more trypsin-susceptible (destabilized)
Details: ligand concentration: 20 uM; sample: mouse liver crude lysate; replicate design: treated separately

Row | Target | log2 fold change
1 | UniProt Q9JJN5 (peptide sequence: AVIQWIR, peptide start residue: 199) | 0.12
2 | UniProt Q9QUJ7 (peptide sequence: VGAPLICCEIK, peptide start residue: 488) | 0.217
3 | UniProt Q9JIK5 (peptide sequence: LGSDGAEESMETLPKPSEKK, peptide start residue: 11) | -0.338
4 | UniProt Q9JJQ0 (peptide sequence: NLHGSSGEMK, peptide start residue: 14) | -0.0284
5 | UniProt Q9ERU9 (peptide sequence: KYISTYINVQERDPK, peptide start residue: 47) | 0.317
6 | UniProt Q9NWG9 (peptide sequence: GYLIYKPVPR, peptide start residue: 143) | -0.321
7 | UniProt Q9JIA7 (peptide sequence: GGSHPLDLLSVTLASGSR, peptide start residue: 276) | 0.571
8 | UniProt Q9JMD1 (peptide sequence: YTHYYGK, peptide start residue: 632) | -0.326
9 | UniProt Q9QWV9 (peptide sequence: FYMIQSFTQFHR, peptide start residue: 69) | -0.961
10 | UniProt Q9JK24 (peptide sequence: LPAEDEVLLQK, peptide start residue: 63) | -0.136
11 | UniProt Q9JJX6 (peptide sequence: FDIIVFGK, peptide start residue: 319) | 0.429
12 | UniProt Q9JIS3 (peptide sequence: KQAMQEAR, peptide start residue: 20) | 0.154
13 | UniProt Q9QUR6 (peptide sequence: VVPLHSLK, peptide start residue: 644) | -0.0517
14 | UniProt Q9JKS4 (peptide sequence: TQSKPEDEADEWAR, peptide start residue: 249) | -0.00289
15 | UniProt Q9ESB3 (peptide sequence: SPLVFGFCR, peptide start residue: 209) | -0.207
16 | UniProt Q9JLF6 (peptide sequence: SGENIPMAYR, peptide start residue: 803) | -0.147
17 | UniProt Q9JKF1 (peptide sequence: DRLQYFR, peptide start residue: 827) | 0.699
18 | UniProt Q9JMG1 (peptide sequence: DIGKPIEKGPK, peptide start residue: 136) | 0.0934

Row | Target | log2 fold change
19 | UniProt Q9EST3 (peptide sequence: SSSLGSTPHEELER, peptide start residue: 350) | 0.539
20 | UniProt Q9JIS8 (peptide sequence: LVSYTNLTQGAKEHEEAESGEGGR, peptide start residue: 86) | -0.308
21 | UniProt Q9ES18 (peptide sequence: LGSASQAGPPGGAR, peptide start residue: 27) | -0.0594
22 | UniProt Q9JJ48 (peptide sequence: MSQGFINQHTVER, peptide start residue: 193) | 0.21
23 | UniProt Q9JI44 (peptide sequence: DILELGGPEGDAASGTISKK, peptide start residue: 9) | -0.145
24 | UniProt Q9JJZ6 (peptide sequence: HANFHPGMLQR, peptide start residue: 250) | 0.142
25 | UniProt Q9JMH6 (peptide sequence: VEDTVKHDWEK, peptide start residue: 204) | -0.281
26 | UniProt Q9JIM1 (peptide sequence: REESGVPGPNSPPTNR, peptide start residue: 263) | -0.275
27 | UniProt Q9ESE1 (peptide sequence: LLSQTMKDHLVR, peptide start residue: 1887) | 0.255
28 | UniProt Q9JLN9 (peptide sequence: LFDAPEVPLPSRK, peptide start residue: 1121) | -0.421
29 | UniProt Q9JJC6 (peptide sequence: TSPQPESGIKR, peptide start residue: 348) | -0.16
30 | UniProt Q9JKF6 (peptide sequence: KHVYGNGYSK, peptide start residue: 392) | -0.575
31 | UniProt Q9QX60 (peptide sequence: VQLEPIPGR, peptide start residue: 121) | -0.561
32 | UniProt Q9QX11 (peptide sequence: RKQELLADIQR, peptide start residue: 26) | -0.202
33 | UniProt Q9JKJ9 (peptide sequence: NVFSALHER, peptide start residue: 113) | 0.0707
34 | UniProt Q9JKK7 (peptide sequence: VAAAITK, peptide start residue: 330) | -0.142
35 | UniProt Q9QWG7 (peptide sequence: EEHPLLYLYYEELKQNPKK, peptide start residue: 185) | -0.196
36 | UniProt Q9JMC8 (peptide sequence: WRPHSPNVSNHSICK, peptide start residue: 462) | -0.193

Copied from the list.
log2 fold change with UniProt Q9JKS4 (peptide sequence: TQSKPEDEADEWAR, peptide start residue: 249) is entered as -0.00289
log2 fold change with UniProt Q9QUR6 (peptide sequence: VVPLHSLK, peptide start residue: 644) is entered as -0.0517
log2 fold change with UniProt Q9JK24 (peptide sequence: LPAEDEVLLQK, peptide start residue: 63) is entered as -0.136
